Test results published in PubChem BioAssay AID1688 (National Center for Advancing Translational Sciences (NCATS), 2009).
Out of some 220,000 compounds screened, about 2,400 (1.1%) were called active. Inconclusive results, whose numbers are uncertain, are shown with a selection of clear calls. The call rests on the fitted dose curve; in most records, active means well fitted inhibition curve with a large enough effect; inconclusive means small, poorly fitted or top-dose-only effect, or effect the other way; inactive means no such curve, though single readings can be large or run the other way. Where the call is inconclusive, the potency comes from a doubtful curve fit.

experiment: qHTS Multiplex Assay to Identify Dual Action Probes in a Cell Model of Huntington: Aggregate Formation (GFP); settings: PC12 HttQ103-GFP aggregates, Acumen cytometry, 40 h; activity change, negative = inhibition: at 46.1 µM (top of the series) unless noted; further: nearly all actives have a fitted effect of over 60% in size
Outline: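 PC12 cells stably carrying ecdysone-inducible HTT exon 1 Q103–GFP were induced with tebufenozide (100 nM final) and treated with library compounds in titration. GFP aggregates in lysates were counted by laser scanning cytometry.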
On the % scale 0 is the no-effect control and ±100 the full control effect; potency means the concentration at half of the fitted maximal effect.

| SMILES | activity change, negative = inhibition | Potency |
| --- | --- | --- |
| CCC(C)N1CC23C=CC(O2)C(C(=O)OC)C3C1=O (configuration not stated) | inactive: -3.01% | – |
| NC(N)=NCCN1CCCCCCC1 | inactive: -7.24% [at 20.6 µM] | – |
| CCC(c1nnnn1CCc1ccccc1)N(Cc1ccco1)Cc1cc2c(C)ccc(C)c2[nH]c1=O (configuration not stated) | – | inconclusive: 22.4 µM [inhibitor, single point] |
| c1cnc(N2CCN(Cc3c[nH]c4ccccc34)CC2)nc1 | – | active: 11.2 µM |
| O=S(=O)(Nc1ccccc1Cl)c1ccc(F)cc1 | inactive: 16.6% | – |
| CCOc1ccccc1OCC(=O)NCc1ccco1 | – | inconclusive: 0.112 µM [activator, full curve, poor fit] |
| Cc1sc2c(c1C)CN(C1CC(C)(C)NC(C)(C)C1)CN2C(=O)c1ccco1 | – | inconclusive: 5.62 µM [inhibitor, single point] |
| Cc1occc1C(=O)N/N=C/c1ccc(OCc2ccccc2)cc1 | inactive: -6.3% [at 9.22 µM] | – |
| O=[N+]([O-])c1ccc(N/N=C/c2sc(N3CCOCC3)nc2-c2ccccc2)c(S(=O)(=O)Nc2ccc(Cl)cc2)c1 | – | active: 3.55 µM |
| COC(=O)c1cc2c(ccn2-c2ccc(F)cc2)n1Cc1ccc(C#N)cc1 | – | inconclusive: 0.562 µM [inhibitor, full curve, poor fit] |
| Cc1ccc2nc(/C(C#N)=C\c3ccc([N+](=O)[O-])o3)[nH]c2c1 | – | inconclusive: 35.5 µM [inhibitor, single point] |
| CCn1c(-c2ccc(C(C)(C)C)cc2)n[nH]c1=S | – | inconclusive: 12.6 µM [inhibitor, partial curve, poor fit] |
| COCc1cc(=O)[nH]c(/N=C(\N)Nc2ccc(Oc3ccccc3)cc2)n1 | – | inconclusive: 22.4 µM [inhibitor, single point] |
| O=C(c1ccc(Cl)s1)N1CCN(c2nc3ccccc3s2)CC1 | – | inconclusive: 22.4 µM [inhibitor, single point] |
| Oc1c(C(c2ccc(Cl)cc2)N2CCCC2)cc(Cl)c2cccnc12 (configuration not stated) | – | inconclusive: 1.41 µM [inhibitor, full curve] |
| O=C1C2C(C(=O)N1Cc1cccnc1)C1C=CC2C12CC2 (configuration not stated) | – | inconclusive: 0.562 µM [inhibitor, partial curve, poor fit] |
| C(=N\c1nc2ccccc2[nH]1)/c1cccs1 | inactive: -7.34% | – |
| Cc1ccc(C(=O)N/C(=C\c2ccco2)C(=O)NCCCn2ccnc2)cc1C | inactive: -16.6% | – |
| COC(=O)CSc1n[nH]c(-c2ccncc2)n1 | inactive: 2.66% | – |

| SMILES | activity change, negative = inhibition | Potency |
| --- | --- | --- |
| COc1ccc(C(O)Cc2nc3ccccc3n2C)cc1OC (configuration not stated) | – | inconclusive: 1.12 µM [inhibitor, partial curve] |
| CCCCOC(=O)c1[nH]c2c(c1C)C(=O)CC(c1cc(OC)c(OC)c(OC)c1)C2 (configuration not stated) | – | inconclusive: 11.2 µM [inhibitor, partial curve] |
| N#Cc1c(-c2ccc3c(c2)OCO3)ccn2nc(-c3cccc(C(F)(F)F)c3)nc12 | – | inconclusive: 1.26 µM [inhibitor, single point] |
| COc1cc2c(-c3ccc(O)cc3)nc3c(c(C)nn3-c3ccccc3)c2cc1OC | inactive: -20.6% | – |
| COc1ccc2cc3c(N)c(C(=O)NCc4ccco4)sc3nc2c1 | – | inconclusive: 1 µM [activator, partial curve] |
| CCCCN(CC)S(=O)(=O)c1ccc(C(=O)Nc2nnc(-c3ccccc3Cl)o2)cc1 | – | active: 10 µM |
| O=C(c1cc2ccccc2c(=O)o1)N1CCCCCC1 | – | inconclusive: 5.62 µM [inhibitor, single point] |
| O=C(NCc1cccnc1)/C(=C\c1ccc(-c2ccc(Cl)c(Cl)c2)o1)S(=O)(=O)c1ccccc1 | – | inconclusive: 3.16 µM [inhibitor, single point] |
| COc1ccc(Nc2nc(N3CCCC3)nc3ccccc23)c(OC)c1 | – | inconclusive: 11.2 µM [inhibitor, partial curve] |
| Nc1nc2ccccc2n1CCOc1ccccc1Cl | – | inconclusive: 35.5 µM [inhibitor, single point] |
| CCOC(=O)CC1COCCN1Cc1cn(C)nc1-c1ccccc1F (configuration not stated) | inactive: -0.571% [at 9.22 µM] | – |
| COc1ccc(CNC(=O)CSc2nnnn2-c2ccccc2)cc1 | inactive: -11.4% | – |
| O=C1CCN(S(=O)(=O)c2ccccc2)C2CCCCC12 (configuration not stated) | inactive: -10.6% | – |
| O=C(CSc1nnc(COc2cccc3cccnc23)o1)N1CCN(C(=O)c2ccco2)CC1 | inactive: 2.58% | – |
| COc1ccc(CCNc2ncnc3[nH]ncc23)cc1OC | – | inconclusive: 35.5 µM [inhibitor, single point] |
| CCCS(=O)(=O)NCCc1cc2c(C)ccc(C)c2[nH]c1=O | – | inconclusive: 3.55 µM [activator, partial curve] |
| O=[N+]([O-])c1cccc2c3c([nH]c12)CCCC3 | inactive: -8.64% [at 9.22 µM] | – |
| N#CC(c1ccc(Cl)cc1)c1ccc(Cl)nn1 (configuration not stated) | inactive: -9.52% [at 9.22 µM] | – |

Look-ups from above.
Under activity change, negative = inhibition, Cc1ccc(C(=O)N/C(=C\c2ccco2)C(=O)NCCCn2ccnc2)cc1C shows inactive: -16.6%
Under Potency, CCn1c(-c2ccc(C(C)(C)C)cc2)n[nH]c1=S shows inconclusive: 12.6 µM [inhibitor, partial curve, poor fit]
Under Potency, Cc1sc2c(c1C)CN(C1CC(C)(C)NC(C)(C)C1)CN2C(=O)c1ccco1 shows inconclusive: 5.62 µM [inhibitor, single point]
